# This is one part of the list. Shown are side measurements of this screen, not its main read-out; they come without a call. Compounds called inactive in the main read-out are mostly missing here. Words in brackets tell the shape of the fitted curve; partial curves, single points and poor fits give uncertain potencies.
# Assay: qHTS Assay for Lipid Storage Modulators in Drosophila S3 Cells;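 on cell number change: cells counted by Cell Tracker Red CMTPX staining in the red channel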
# Conditions: BODIPY lipid droplet fluorescence, 18-24 h; for cell number change: measured here: cell count max response, cells fed with added oleic acid
# Procedure, shortened: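 Laser-scanning cytometry quantifies lipid droplet accumulation (500–530 nm total intensity; droplet/cell object ratio) in oleic acid-fed (400 uM added) Drosophila S3 cells treated with a concentration series. 20 uM Triacsin C defined 100% inhibition.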
# [1] = measured here: cell number channel AC50, cells fed with added oleic acid
# [2] = measured here: lipid fluorescence (Fed channel) AC50, cells fed with added oleic acid
SMILES,cell number change [%],AC50 [1],AC50 [2]
CCCOc1ccc(C(O)(CCN2CCCCC2)c2ccccc2OC)cc1 (configuration not stated),31.5,"29.1 µM [rising, single point]","23.1 µM [rising, partial curve]"
O=C(c1cccc(NC2=NC3CS(=O)(=O)CC3S2)c1)N1CCN(c2cccc(Cl)c2)CC1 (configuration not stated),-4.61,–,–
Cc1noc(COc2ccccc2OCC(N)=O)c1Cl,-22.7,–,"0.0651 µM [rising, full curve, poor fit]"
Cc1cc(NC(=O)CCSc2ccccc2)no1,-5.52,–,"0.731 µM [falling, full curve, poor fit]"
O=C1CCC(=O)N1c1cccc(-c2nc3ccccc3o2)c1,2.16,"2.59 µM [rising, partial curve, poor fit]",–
O=C(Nc1ccc(C(=O)O)cc1)/C(=C\c1ccco1)NC(=O)c1ccc(Br)o1,-7.5,–,–
C/C(=N\NC(=O)c1ccc(Br)cc1)C1C(=O)c2ccccc2C1=O,-36,"25.9 µM [falling, single point]",–
Cc1noc(C)c1CSCC(=O)N(C)CC(=O)Nc1ccc(F)cc1,-94.1,"29.1 µM [falling, single point]",–
CSc1nsc(SC)c1C(=O)O,–,–,"29.1 µM [falling, partial curve]"
O=Cc1ccc(N2CCCC2)c(F)c1,-1.32,–,–
Cn1ncc([N+](=O)[O-])c1C(=O)Nc1ccccc1Cl,-6.61,–,–
Cc1ccc(-n2nnnc2SCC(=O)NC2CCS(=O)(=O)C2)c(C)c1 (configuration not stated),-18.9,"1.64 µM [falling, partial curve, poor fit]",–
O=C(CCN1C(=O)/C(=C\C=C\c2ccccc2)SC1=S)Nc1ccccc1C(=O)O,22.7,"4.11 µM [rising, full curve, poor fit]",–
COc1ccc(C(=O)CSc2nnc(-c3cccnc3)n2Cc2ccco2)cc1,63.6,"29.1 µM [rising, single point]","29.1 µM [rising, single point]"
COc1ccccc1N(C(=O)NCc1ccccc1)C1=NCC(C)S1 (configuration not stated),-0.711,–,"4.11 µM [rising, full curve, poor fit]"
O=C(Nc1ccccc1Br)c1cc[n+]([O-])cc1,19.8,–,–
CC(=O)Nc1ccc(C(=O)NC(CC(=O)O)c2ccc(Cl)cc2)cc1 (configuration not stated),–,–,"18.4 µM [falling, partial curve]"
COc1ccc(C(=O)N2N=C3CC(C)(C)OCC3C2c2ccccc2)cc1 (configuration not stated),10.1,–,–
N#Cc1c(N)nc(SCc2ccncc2)c(C#N)c1-c1cccs1,-9.21,"2.91 µM [rising, partial curve]","3.26 µM [rising, full curve]"
COc1cc(CO)c(OC)c([N+](=O)[O-])c1,-8.09,–,"6.51 µM [falling, single point]"
CC(C)(C)C1CCC(=O)N(CCSc2ccccc2)CC1 (configuration not stated),–,–,"20.6 µM [falling, single point]"

SMILES,cell number change [%],AC50 [1],AC50 [2]
Cc1ccc2[nH]c(=O)c(-c3nc4cc(C)ccn4c3NCc3ccco3)cc2c1,55.9,"29.1 µM [rising, single point]","0.116 µM [rising, single point]"
Cc1ccc(-n2c3c(cc(C(=O)O)c2=O)C(=O)CC(C)(C)C3)cc1,-206,"20.6 µM [falling, partial curve]","23.1 µM [falling, partial curve]"
Nc1cc(-c2ccco2)no1,2.01,–,–
O=C(CCN1C(=O)c2cccnc2C1=O)NC1CCCCCC1,-53.3,"29.1 µM [falling, single point]","29.1 µM [falling, single point]"
O=C(CN(Cc1ccco1)C(=O)c1ccc(Cl)cc1)Nc1ccc(Cl)c(Cl)c1,50,"20.6 µM [rising, partial curve]",–
CC(C)c1onc(C(=O)Nc2cccc(Cl)c2)c1[N+](=O)[O-],23.5,–,"29.1 µM [rising, single point]"
COC(=O)c1c(NC(=O)c2ccco2)sc(C)c1C,-3.13,–,"0.731 µM [rising, partial curve, poor fit]"
Cc1nc(CC(=O)NNS(=O)(=O)c2ccc3ccccc3c2)cs1,-24.8,–,"0.651 µM [falling, full curve, poor fit]"
CCCC(c1nnnn1C1CCCC1)N1CCN(C(=O)c2ccco2)CC1 (configuration not stated),14.4,"0.259 µM [rising, full curve, poor fit]","0.326 µM [rising, partial curve]"
COc1ccc(S(=O)(=O)N2CCC(C(=O)NCCCn3ccnc3)CC2)cc1C,16.7,–,"0.103 µM [rising, single point]"
Cc1c(Cl)cccc1NC(=O)CC1Oc2ccccc2NC1=O (configuration not stated),13.9,–,"0.0082 µM [rising, full curve, poor fit]"
O=C1CCc2cc(S(=O)(=O)NCCC(=O)NC3CCN(Cc4ccccc4)CC3)ccc2N1,-27.4,–,"32.6 µM [falling, single point]"
O=[N+]([O-])c1ccccc1CNCCCCO,-14.5,–,"16.4 µM [rising, partial curve, poor fit]"
CCCCOC(=O)Nc1nc(CC(=O)OCC)cs1,-1.28,–,–
COC(=O)CC1C(=O)NCCN1C(=O)CSc1nc2ccccc2o1 (configuration not stated),-4.87,–,–
CCN(CC)c1ccc(NS(=O)(=O)c2ccc3c(c2)oc(=O)n3C)c(C)c1,–,"0.13 µM [rising, single point]","0.13 µM [rising, single point]"
Cc1ccc(NC(=S)N2CCN(S(=O)(=O)c3ccccc3)CC2)cc1,41.9,"0.731 µM [rising, full curve]","29.1 µM [rising, single point]"
CS(=O)(=O)N(CC(=O)N1CCCC1)Cc1ccc(F)cc1,-22.5,–,–
COc1ccc(NC(=O)CSc2nc3ccccc3c(=O)n2CCC(=O)N2CCCCC2)cc1,-6.9,–,"29.1 µM [falling, single point]"
S=c1[nH]c(-c2cccs2)cn1-c1ccccc1,21,–,"29.1 µM [rising, single point]"

# Look-ups from the entries so far.
# CSc1nsc(SC)c1C(=O)O | AC50 [2]: 29.1 µM [falling, partial curve]
# COc1ccccc1N(C(=O)NCc1ccccc1)C1=NCC(C)S1 (configuration not stated) | cell number change [%]: -0.711
